Earlier results on one compound are cited in patent publication US20200121616A1, “COMPOSITIONS COMPRISING CANNABIDIOL AND HYALURONIC ACID FOR TREATING INFLAMMATORY JOINT DISEASES” (BOL PHARMA LTD., priority 2015, published 2020).

Molecules are shown by their SMILES.

For the compound `C=C(C)[C@@H]1CCC(C)=C[C@H]1c1c(O)cc(CCCCC)cc1O` [Cannabidiol], the “solubility in organic solvents” value (organic solvents, such as oil) is “soluble”. Besides, the solubility in water result (water) was “insoluble”.
